From PMC3237458, “PEGylation Potentiates the Effectiveness of an Antagonistic Peptide That Targets the EphB4 Receptor with Nanomolar Affinity” (PLoS ONE, 2011)
These are yes or no findings as the source states them, for the method shown. Some entries that bind do so weakly or less than the wild type. Tags and fused reporters may be left off the sequences shown.

T1: TNYL-RAW fused with human Fc (TNYL-RAW-Fc)
T1 sequence: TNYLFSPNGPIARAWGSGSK

T2: EphB4 Fc (UniProt P54761)
T2 sequence: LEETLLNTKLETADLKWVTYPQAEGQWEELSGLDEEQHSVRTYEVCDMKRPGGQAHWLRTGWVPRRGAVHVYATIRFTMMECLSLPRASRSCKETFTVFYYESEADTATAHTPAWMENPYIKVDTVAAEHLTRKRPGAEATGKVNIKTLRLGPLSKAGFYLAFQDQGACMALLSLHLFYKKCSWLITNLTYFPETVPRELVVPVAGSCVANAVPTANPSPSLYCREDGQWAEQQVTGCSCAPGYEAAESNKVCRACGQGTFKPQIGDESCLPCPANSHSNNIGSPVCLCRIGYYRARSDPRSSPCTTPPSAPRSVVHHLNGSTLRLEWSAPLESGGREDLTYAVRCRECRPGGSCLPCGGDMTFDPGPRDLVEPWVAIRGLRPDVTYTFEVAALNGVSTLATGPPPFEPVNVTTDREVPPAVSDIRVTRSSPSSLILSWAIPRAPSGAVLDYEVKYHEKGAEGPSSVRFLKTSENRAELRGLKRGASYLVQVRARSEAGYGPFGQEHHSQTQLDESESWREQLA


Key:
[1] = target: T1, TNYL-RAW fused with human Fc (TNYL-RAW-Fc); assay: ELISA; biotinylated TNYL-RAW captured on streptavidin-coated wells or TNYL-RAW-Fc captured on anti-Fc antibody; EphB4 AP in cell culture medium diluted in TBST added for 3 hours; AP activity read with pNPP; only the target purified
EphB4 Fc = target: T2, EphB4 Fc; assay: ELISA; competition: EphB4 Fc (1 µg/ml) on protein A-coated plates, 3 hours with 0.02 nM ephrin-B2 AP and different concentrations of the forms of TNYL-RAW; bound ephrin-B2 AP read with pNPP; both purified

binding [1]	binding (EphB4 Fc)	Binder
binds		mouse EphB4 AP (receptor, UniProt P54761 16-539) LEETLLNTKLETADLKWVTYPQAEGQWEELSGLDEEQHSVRTYEVCDMKRPGGQAHWLRTGWVPRRGAVHVYATIRFTMMECLSLPRASRSCKETFTVFYYESEADTATAHTPAWMENPYIKVDTVAAEHLTRKRPGAEATGKVNIKTLRLGPLSKAGFYLAFQDQGACMALLSLHLFYKKCSWLITNLTYFPETVPRELVVPVAGSCVANAVPTANPSPSLYCREDGQWAEQQVTGCSCAPGYEAAESNKVCRACGQGTFKPQIGDESCLPCPANSHSNNIGSPVCLCRIGYYRARSDPRSSPCTTPPSAPRSVVHHLNGSTLRLEWSAPLESGGREDLTYAVRCRECRPGGSCLPCGGDMTFDPGPRDLVEPWVAIRGLRPDVTYTFEVAALNGVSTLATGPPPFEPVNVTTDREVPPAVSDIRVTRSSPSSLILSWAIPRAPSGAVLDYEVKYHEKGAEGPSSVRFLKTSENRAELRGLKRGASYLVQVRARSEAGYGPFGQEHHSQTQLDESESWREQLA
	binds	TNYLFSPNGPIARAWGSGSK (Fc fusion) [TNYL-RAW fused with human Fc (TNYL-RAW-Fc)]
